PubChem BioAssay AID1259297, Sanger Institute | 2017

Purpose: 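Kinases whose loss kills cells on their own or with targeted drugs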 (primary screen)
Cells: human RCM1 colorectal cancer cell line
Knock-down reagent: siRNA pool against human genes
Treatment: separate arms: DMSO vehicle, or one anchor drug at a mild dose: BYL719 1 µM, cetuximab 5 µg/ml, trametinib 10 nM
Measurement: 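Viability per well relative to a non-targeting pool, mean of replicates; robust z-score for knock-down alone; synergy score with BYL719, cetuximab or trametinib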
Scale: viability z-score, knock-down alone: higher = more viable cells than non-targeting controls; viability, knock-down alone (DMSO): higher = more viable cells
Units: viability, knock-down alone (DMSO) in fraction of control
Hit rule: 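Essential when the viability robust z-score for knock-down alone is below -3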
Meaning of the calls: active = essential when knocked down alone; inactive = no clear loss of viability alone
In all, the deposit lists 794 reagents; below is an unselected part. Of all reagents, 13 (1.6%) are marked active. 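Calls reflect knock-down without drug only; drug synergy is judged separately, with scores above 0.15 counted as synergy.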 Viability is capped at 1. Further read-outs or replicates are left out here. No sequences are given here. The record does not give: the amount of reagent, the time to read-out.

Against PRKD2 the deposit lists viability z-score, knock-down alone 0.9; viability, knock-down alone (DMSO) = 1; inactive.
IGF1R scored viability z-score, knock-down alone 0.00604; viability, knock-down alone (DMSO) = 0.917; inactive.
For SIK3, the values are viability z-score, knock-down alone 0.228; viability, knock-down alone (DMSO) = 0.938; inactive.
LMTK2 gave viability z-score, knock-down alone -0.597; viability, knock-down alone (DMSO) = 0.861; inactive.
After knock-down of COQ8B, the record shows viability z-score, knock-down alone 0.253; viability, knock-down alone (DMSO) = 0.94; inactive.
After knock-down of CDK11B, the record shows viability z-score, knock-down alone -0.661; viability, knock-down alone (DMSO) = 0.855; inactive.
FES gave viability z-score, knock-down alone -0.568; viability, knock-down alone (DMSO) = 0.864; inactive.

2 of these entries in another layout:
{"Target gene":"SIK3","viability z-score, knock-down alone":0.228,"viability, knock-down alone (DMSO)":0.938,"call":"inactive"}
{"Target gene":"LMTK2","viability z-score, knock-down alone":-0.597,"viability, knock-down alone (DMSO)":0.861,"call":"inactive"}

The results go on:
For CDK13 the deposit lists viability z-score, knock-down alone 0.9; viability, knock-down alone (DMSO) = 1; inactive.
STK17B showed viability z-score, knock-down alone 0.864; viability, knock-down alone (DMSO) = 0.997; inactive.
Knock-down of MARK4 resulted in: viability z-score, knock-down alone 0.492; viability, knock-down alone (DMSO) = 0.962; inactive.
Depletion of MAGI3 gave: viability z-score, knock-down alone -1.04; viability, knock-down alone (DMSO) = 0.82; inactive.
ETNK1 scored viability z-score, knock-down alone 0.9; viability, knock-down alone (DMSO) = 1; inactive.
